Data: PubChem BioAssay AID1487 (National Center for Advancing Translational Sciences (NCATS), 2009)
Several values for one entry are separate records, joined by “and”; a condition that tells them apart may be missing. Identical values can stand only once. The list shows a part of the results. Shown are side measurements of this screen, not its main read-out; they come without a call. The list favours compounds with an active or inconclusive main result. Potencies come from curve fits of mixed quality, noted in brackets.

Experiment: qHTS Assay for Modulators of Lamin A Splicing
Conditions: HeLa LMNA splicing GFP/RFP minigene ratio, 48 h
Method in brief: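 S3 HeLa cells stably expressing lamin A-EGFP splicing minigene plus DsRed2, 600 cells/well, 48 h compound exposure at 37C. Laser-scanning cytometry; analysed as GFP (500-530 nm)/RFP (575-640 nm) total intensity ratio; 0.5% DMSO vehicle.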

[1] = measured here: GFP splicing reporter channel
[2] = measured here: RFP viability control channel

CC(C)CNC(=O)c1cc(-c2ccc(Cl)c(Cl)c2)on1
AC50 [1]: 0.282 µM [rising, full curve, poor fit] | AC50 [2]: 0.224 µM [rising, full curve, poor fit]

Cc1ccc(N(CC(=O)NC(C)(C)C)C(=O)CNC(=O)c2cccs2)cc1C
AC50 [1]: 0.00447 µM [falling, full curve, poor fit] | AC50 [2]: 0.00891 µM [falling, full curve, poor fit]

O=C(Cn1cnc2ccccc2c1=O)Nc1ccc(N2CCOCC2)cc1
AC50 [1]: 4.47 µM [falling, full curve, poor fit] | AC50 [2]: 28.2 µM [falling, single point]

NC(N)=O
AC50 [1]: 0.794 µM [falling, single point] | AC50 [2]: 0.794 µM [falling, single point]

CCCC(C)NC(=S)NC(=O)c1cc(S(=O)(=O)N2CCOCC2)ccc1C (stereo not given)
AC50 [1]: 10 µM [rising, partial curve] | AC50 [2]: 15.8 µM [rising, partial curve]

CCCS(=O)(=O)c1c(S(=O)(=O)CCC)c2ccc(C(C)=O)cn2c1C(=O)OC
AC50 [1]: 17.8 µM [rising, partial curve, poor fit]

Cc1ccc(C(=O)C2Oc3ccccc3C3CC(c4ccc(C)cc4)=NN23)cc1 (stereo not given)
AC50 [2]: 14.1 µM [rising, partial curve]

C=CCSc1nccc(-c2nn(-c3ccc(C)cc3)ccc2=O)n1
AC50 [2]: 22.4 µM [rising, single point]

O=C(Nc1ccc2[nH]c(=O)[nH]c2c1)c1ccc(Cl)c(Cl)c1
AC50 [1]: 0.0224 µM [falling, full curve, poor fit] | AC50 [2]: 0.01 µM [falling, full curve, poor fit]

CCN1C=C(Cc2cccs2)C2=C(C1)C(c1cccs1)C(C#N)=C(N)O2 (stereo not given)
AC50 [1]: 14.1 µM [rising, single point] | AC50 [2]: 12.6 µM [rising, single point]

O=C(N/C=N/OCc1ccc(Cl)cc1Cl)NOCc1ncc(C(F)(F)F)cc1Cl
AC50 [2]: 11.2 µM [rising, partial curve, poor fit]

Cc1c(Cl)cccc1NC(=O)C1CCN(c2nc3ccccc3[nH]2)CC1
AC50 [1]: 0.447 µM [rising, single point] | AC50 [2]: 0.562 µM [rising, single point]

CCCN(C(=O)Nc1cn(CC(C)C)c(=O)c2ccccc12)c1ccc(F)cc1
AC50 [1]: 10 µM [falling, partial curve, poor fit]

Cc1ccc(CCNC(=O)C23CN(Cc4ccccc4)CC2C(c2ccc([N+](=O)[O-])cc2)=NO3)cc1 (stereo not given)
AC50 [1]: 11.2 µM [rising, single point]

O=C(CN1CCN(c2ccccc2F)CC1)N1N=CCC1c1ccccc1 (stereo not given)
AC50 [1]: 2.24 µM [rising, partial curve, poor fit] | AC50 [2]: 0.0631 µM [rising, full curve, poor fit]

COc1ccccc1NC(=O)Cn1c(=O)n(-c2ccccc2)c(=O)c2oc3ccccc3c21
AC50 [1]: 2.51 µM [falling, partial curve]

O=C(OCCN1C(=O)c2cccc3c(N4CCOCC4)ccc(c23)C1=O)c1cccc(Cl)c1
AC50 [2]: 22.4 µM [rising, single point]

S=c1[nH]c2ccc3ccccc3c2[nH]1
AC50 [1]: 0.224 µM [falling, full curve, poor fit]

c1csc(-c2csc3ncnc(NCCCN4CCOCC4)c23)c1
AC50 [1]: 12.6 µM [rising, single point] | AC50 [2]: 12.6 µM [rising, partial curve]

CC(C)C(=O)OCc1cc(=O)n2nc(C3CC3)sc2n1
AC50 [1]: 0.00891 µM [rising, full curve]

N#CCSc1nc2ccccc2c2nc3ccccc3n12
AC50 [1]: 0.112 µM [rising, full curve, poor fit]

COc1cc(/C=C(\C#N)c2nc3ccccc3[nH]2)cc(Br)c1OCc1ccccc1
AC50 [1]: 2.82 µM [rising, partial curve, poor fit]

Cc1cc(C)cc(NC(=O)CSc2nc3sc4c(c3c(=O)[nH]2)CCCC4)c1
AC50 [2]: 0.112 µM [falling, partial curve, poor fit]

COc1ccc(C(=O)Sc2nncc3ccccc23)cc1
AC50 [1]: 0.0112 µM [falling, full curve, poor fit]

COc1ccc(C)cc1NC(=O)CCN1CC(C)OC(C)C1 (stereo not given)
AC50 [1]: 12.6 µM [falling, partial curve, poor fit]

CCCCOc1ccc(NC(=O)[C@@H]2CCCN2C(=O)C2CCN(S(=O)(=O)c3ccc(C)cc3)CC2)cc1
AC50 [1]: 14.1 µM [rising, single point] | AC50 [2]: 17.8 µM [rising, single point]

O=C(NCCc1ccc(Cl)cc1)c1ccc(CSCc2cccc(Cl)c2)o1
AC50 [2]: 14.1 µM [rising, single point]

Cc1cc(-c2ccccc2)nc(N2CCN(c3ccccn3)CC2)n1
AC50 [1]: 17.8 µM [rising, partial curve, poor fit] | AC50 [2]: 12.6 µM [rising, single point]

Cc1cccc2nc(-c3ccccc3)nc(N[C@@H](CO)c3ccccc3)c12
AC50 [2]: 14.1 µM [rising, partial curve]

O=C(Nc1ccc(N2CCOCC2)cc1)c1ccc2c(c1)OCO2
AC50 [1]: 17.8 µM [falling, partial curve, poor fit]

Cc1nn(CC(=O)Nc2cc(S(=O)(=O)N(C)C)ccc2Cl)c(C)c1[N+](=O)[O-]
AC50 [1]: 20 µM [rising, partial curve, poor fit] | AC50 [2]: 31.6 µM [rising, single point]

Cc1cc(C)cc(OCC(=O)N2CCC(c3nc4ccccc4s3)CC2)c1
AC50 [1]: 7.94 µM [falling, partial curve, poor fit] | AC50 [2]: 0.00447 µM [falling, full curve, poor fit]

CC(/C=C1\SC(=S)N(NC(=O)c2ccc(O)cc2)C1=O)=C\c1ccccc1
AC50 [1]: 0.00501 µM [falling, full curve]

CC(=O)C1=C(S(=O)(=O)c2ccc(C)cc2)CS(=O)(=O)C1
AC50 [2]: 22.4 µM [rising, partial curve]

C/C=C/c1cc(CN2CCN(c3ccccc3)CC2)c(O)c(OC)c1
AC50 [1]: 0.00316 µM [falling, full curve] | AC50 [2]: 12.6 µM [rising, single point]

Cn1c([N+](=O)[O-])cnc1COC(N)=O
AC50 [1]: 251 nM [falling, full curve] and 501 nM [falling, full curve, poor fit] | AC50 [2]: 0.251 µM [falling, full curve, poor fit]

Cn1cccc1/C=N/n1c(-c2ccc(Cl)cc2Cl)n[nH]c1=S
AC50 [2]: 17.8 µM [rising, single point]

COCCCNC(=S)NC1CCCCC1
AC50 [2]: 35.5 µM [rising, single point]

CCc1ccc(CC2S/C(=C(\C#N)C(C)=O)NC2=O)cc1 (stereo not given)
AC50 [1]: 4.47 µM [rising, partial curve] | AC50 [2]: 3.16 µM [rising, partial curve]

CCC(SC1=N/C(=C/c2ccccc2)C(=O)N1c1ccccc1)C(=O)Nc1cc(C)on1 (stereo not given)
AC50 [2]: 6.31 µM [rising, partial curve, poor fit]

CCCCc1nc2c(c3c1C[C@H](C)OC3)CN(C(=O)COC)CC2
AC50 [1]: 0.000891 µM [rising, full curve, poor fit]

Cc1cc(F)ccc1NC(=O)CCn1nc(C)c(S(=O)(=O)N2CCCCC2)c1C
AC50 [1]: 39.8 µM [rising, partial curve, poor fit]

CCOc1ccc(-c2cc(C(=O)NCCc3ccc(OC)c(OC)c3)c3c(-c4ccc(F)cc4)[nH]nc3n2)cc1
AC50 [1]: 0.891 µM [falling, partial curve, poor fit] | AC50 [2]: 17.8 µM [falling, partial curve, poor fit]

CC1=C(C(=O)O)N2C(=O)[C@@H](NC(=O)[C@@H](N)c3ccccc3)[C@@H]2SC1
AC50 [1]: 0.00708 µM [falling, full curve, poor fit]

CCc1ccc(S(=O)(=O)NCc2cn3ccccc3n2)s1
AC50 [2]: 12.6 µM [rising, partial curve, poor fit]

Cc1cc2cc(CN(CC3CCCO3)C(=S)NCc3ccco3)c(=O)[nH]c2cc1C (stereo not given)
AC50 [2]: 28.2 µM [rising, single point]

Cc1ccc(S(=O)(=O)N2CCCCC2)cc1NC(=O)CSc1nnc(N)s1
AC50 [1]: 0.0251 µM [falling, full curve, poor fit] | AC50 [2]: 0.0141 µM [falling, full curve, poor fit]

O=[N+]([O-])c1ccc(-c2csc(Nc3ccccc3)[n+]2Cc2ccccc2)cc1
AC50 [1]: 8.91 µM [rising, partial curve, poor fit] | AC50 [2]: 12.6 µM [rising, partial curve]

COc1cccc(CNC(=O)c2cc(Sc3cccc(Cl)c3)nc3ccccc23)c1
AC50 [2]: 3.98 µM [rising, full curve, poor fit]

Oc1c(Cl)cc(Cl)cc1C(C#Cc1ccccc1)N1CCOCC1 (stereo not given)
AC50 [1]: 35.5 µM [falling, single point] | AC50 [2]: 35.5 µM [falling, single point]

O=C(Nc1ccc2c(c1)CCC2)c1ccc(F)c(S(=O)(=O)N2CCOCC2)c1
AC50 [1]: 11.2 µM [rising, partial curve] | AC50 [2]: 22.4 µM [rising, partial curve]

Cc1cc(C)cc(-n2nnnc2SCC(=O)Nc2nc(-c3ccc(Cl)cc3)cs2)c1
AC50 [1]: 25.1 µM [falling, single point] | AC50 [2]: 35.5 µM [falling, single point]
